Assay results from the supplement of paper PMC10849652.
The other results are listed elsewhere or left out.

Amino acid sequences for entries named in this document (tags omitted). A change or cut given only in a name is not applied to a line headed by its entry.
UniProt O43716: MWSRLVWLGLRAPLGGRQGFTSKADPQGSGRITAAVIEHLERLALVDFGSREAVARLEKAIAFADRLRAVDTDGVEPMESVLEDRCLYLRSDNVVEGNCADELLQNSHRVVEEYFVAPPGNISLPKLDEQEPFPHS
UniProt Q70Z53: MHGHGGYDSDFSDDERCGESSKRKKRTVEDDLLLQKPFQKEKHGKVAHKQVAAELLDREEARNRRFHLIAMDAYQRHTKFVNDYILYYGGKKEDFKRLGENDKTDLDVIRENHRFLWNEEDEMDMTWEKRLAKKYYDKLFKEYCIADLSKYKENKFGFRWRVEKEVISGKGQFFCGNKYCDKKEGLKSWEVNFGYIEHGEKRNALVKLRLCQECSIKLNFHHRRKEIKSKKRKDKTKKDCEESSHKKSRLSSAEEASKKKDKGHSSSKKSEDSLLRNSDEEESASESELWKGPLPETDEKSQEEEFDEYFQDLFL
UniProt Q8IY81: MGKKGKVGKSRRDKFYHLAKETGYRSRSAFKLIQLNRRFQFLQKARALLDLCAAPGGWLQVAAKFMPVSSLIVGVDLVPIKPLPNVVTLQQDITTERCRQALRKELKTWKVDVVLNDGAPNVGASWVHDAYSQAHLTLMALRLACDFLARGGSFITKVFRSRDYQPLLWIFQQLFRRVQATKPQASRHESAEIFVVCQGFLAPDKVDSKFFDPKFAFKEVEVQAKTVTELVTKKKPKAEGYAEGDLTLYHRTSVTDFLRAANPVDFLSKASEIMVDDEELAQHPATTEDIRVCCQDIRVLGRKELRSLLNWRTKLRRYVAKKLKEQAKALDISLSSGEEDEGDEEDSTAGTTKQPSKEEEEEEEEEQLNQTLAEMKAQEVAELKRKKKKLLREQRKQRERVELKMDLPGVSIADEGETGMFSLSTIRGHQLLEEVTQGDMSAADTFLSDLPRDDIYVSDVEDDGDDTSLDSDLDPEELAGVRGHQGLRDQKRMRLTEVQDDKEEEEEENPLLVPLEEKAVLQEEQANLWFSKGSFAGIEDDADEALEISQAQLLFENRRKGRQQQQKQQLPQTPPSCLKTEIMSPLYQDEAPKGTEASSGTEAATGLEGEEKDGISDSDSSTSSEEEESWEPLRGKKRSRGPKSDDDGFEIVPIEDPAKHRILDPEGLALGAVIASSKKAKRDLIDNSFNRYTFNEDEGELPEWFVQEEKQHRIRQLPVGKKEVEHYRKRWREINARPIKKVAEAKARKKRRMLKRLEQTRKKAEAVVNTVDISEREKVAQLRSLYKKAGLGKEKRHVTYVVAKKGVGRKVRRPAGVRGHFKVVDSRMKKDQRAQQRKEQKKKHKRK
UniProt Q8IWF2: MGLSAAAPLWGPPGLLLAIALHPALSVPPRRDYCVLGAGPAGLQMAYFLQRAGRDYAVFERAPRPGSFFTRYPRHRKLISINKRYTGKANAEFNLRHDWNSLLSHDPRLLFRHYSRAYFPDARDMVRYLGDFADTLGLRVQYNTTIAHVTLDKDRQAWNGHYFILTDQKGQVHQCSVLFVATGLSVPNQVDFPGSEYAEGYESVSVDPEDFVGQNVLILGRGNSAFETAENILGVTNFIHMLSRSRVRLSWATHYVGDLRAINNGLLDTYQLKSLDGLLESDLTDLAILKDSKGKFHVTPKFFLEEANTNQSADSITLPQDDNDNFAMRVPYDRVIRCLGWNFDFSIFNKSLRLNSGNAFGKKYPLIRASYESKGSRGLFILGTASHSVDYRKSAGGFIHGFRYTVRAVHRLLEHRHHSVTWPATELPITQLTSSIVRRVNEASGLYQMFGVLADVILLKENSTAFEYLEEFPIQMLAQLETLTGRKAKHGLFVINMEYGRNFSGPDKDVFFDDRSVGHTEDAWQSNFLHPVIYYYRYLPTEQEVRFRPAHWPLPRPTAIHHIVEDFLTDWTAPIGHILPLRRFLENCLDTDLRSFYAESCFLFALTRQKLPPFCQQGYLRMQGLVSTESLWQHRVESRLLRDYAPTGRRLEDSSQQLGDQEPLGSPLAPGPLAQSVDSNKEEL
UniProt P60520, whole entry, looked up: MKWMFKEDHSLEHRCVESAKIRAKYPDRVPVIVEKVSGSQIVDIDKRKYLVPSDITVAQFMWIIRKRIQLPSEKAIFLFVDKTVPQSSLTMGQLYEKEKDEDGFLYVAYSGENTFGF
UniProt A2VDF0: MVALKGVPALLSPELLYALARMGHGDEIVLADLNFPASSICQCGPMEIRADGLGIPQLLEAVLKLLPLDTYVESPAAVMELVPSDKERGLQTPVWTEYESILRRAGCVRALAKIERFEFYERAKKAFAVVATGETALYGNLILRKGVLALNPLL
UniProt Q8WXI9: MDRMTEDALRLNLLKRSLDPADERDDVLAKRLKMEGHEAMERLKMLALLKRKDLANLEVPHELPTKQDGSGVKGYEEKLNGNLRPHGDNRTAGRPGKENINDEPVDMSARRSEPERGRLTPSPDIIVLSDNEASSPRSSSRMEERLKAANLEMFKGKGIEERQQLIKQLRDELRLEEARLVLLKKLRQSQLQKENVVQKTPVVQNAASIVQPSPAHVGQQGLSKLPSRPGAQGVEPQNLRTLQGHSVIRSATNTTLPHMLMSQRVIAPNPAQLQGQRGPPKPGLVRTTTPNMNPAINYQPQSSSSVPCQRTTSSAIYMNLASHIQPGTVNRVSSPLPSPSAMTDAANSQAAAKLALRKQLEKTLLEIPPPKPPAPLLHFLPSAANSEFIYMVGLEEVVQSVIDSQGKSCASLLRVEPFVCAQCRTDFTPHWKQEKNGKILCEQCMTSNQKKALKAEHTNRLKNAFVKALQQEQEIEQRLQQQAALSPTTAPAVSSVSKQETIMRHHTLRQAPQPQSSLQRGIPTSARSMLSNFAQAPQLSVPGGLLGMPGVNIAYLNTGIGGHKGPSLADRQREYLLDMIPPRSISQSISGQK
UniProt Q9NXN4: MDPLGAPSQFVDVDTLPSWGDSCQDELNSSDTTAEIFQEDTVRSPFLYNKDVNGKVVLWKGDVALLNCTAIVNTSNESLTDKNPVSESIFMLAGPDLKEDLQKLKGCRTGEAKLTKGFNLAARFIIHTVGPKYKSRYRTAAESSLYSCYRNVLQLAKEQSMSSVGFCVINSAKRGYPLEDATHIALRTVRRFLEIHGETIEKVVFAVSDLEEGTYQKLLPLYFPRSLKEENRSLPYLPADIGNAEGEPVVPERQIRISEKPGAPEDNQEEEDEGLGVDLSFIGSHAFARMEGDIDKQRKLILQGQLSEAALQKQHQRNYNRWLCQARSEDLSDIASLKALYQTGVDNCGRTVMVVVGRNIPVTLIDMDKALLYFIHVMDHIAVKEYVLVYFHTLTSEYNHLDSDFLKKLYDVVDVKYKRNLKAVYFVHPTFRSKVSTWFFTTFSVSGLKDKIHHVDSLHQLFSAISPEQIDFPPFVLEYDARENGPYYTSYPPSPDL
UniProt O43524: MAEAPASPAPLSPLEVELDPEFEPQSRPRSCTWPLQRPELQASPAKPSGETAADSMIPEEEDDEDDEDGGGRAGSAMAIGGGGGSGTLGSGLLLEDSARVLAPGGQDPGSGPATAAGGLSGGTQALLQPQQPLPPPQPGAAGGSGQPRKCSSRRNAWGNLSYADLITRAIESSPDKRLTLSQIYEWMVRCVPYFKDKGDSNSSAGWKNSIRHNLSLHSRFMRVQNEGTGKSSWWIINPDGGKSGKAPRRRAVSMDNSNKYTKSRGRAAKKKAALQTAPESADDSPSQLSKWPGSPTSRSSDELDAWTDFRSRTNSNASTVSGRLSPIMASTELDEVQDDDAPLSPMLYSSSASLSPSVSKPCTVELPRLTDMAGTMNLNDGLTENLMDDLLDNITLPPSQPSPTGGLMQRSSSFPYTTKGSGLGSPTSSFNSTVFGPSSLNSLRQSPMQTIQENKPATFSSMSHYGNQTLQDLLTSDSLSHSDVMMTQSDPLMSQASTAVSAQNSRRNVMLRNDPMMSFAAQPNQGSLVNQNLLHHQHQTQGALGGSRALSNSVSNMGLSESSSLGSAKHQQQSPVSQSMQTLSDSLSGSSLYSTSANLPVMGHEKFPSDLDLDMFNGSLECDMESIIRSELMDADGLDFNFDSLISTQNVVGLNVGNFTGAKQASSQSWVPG
UniProt Q14393: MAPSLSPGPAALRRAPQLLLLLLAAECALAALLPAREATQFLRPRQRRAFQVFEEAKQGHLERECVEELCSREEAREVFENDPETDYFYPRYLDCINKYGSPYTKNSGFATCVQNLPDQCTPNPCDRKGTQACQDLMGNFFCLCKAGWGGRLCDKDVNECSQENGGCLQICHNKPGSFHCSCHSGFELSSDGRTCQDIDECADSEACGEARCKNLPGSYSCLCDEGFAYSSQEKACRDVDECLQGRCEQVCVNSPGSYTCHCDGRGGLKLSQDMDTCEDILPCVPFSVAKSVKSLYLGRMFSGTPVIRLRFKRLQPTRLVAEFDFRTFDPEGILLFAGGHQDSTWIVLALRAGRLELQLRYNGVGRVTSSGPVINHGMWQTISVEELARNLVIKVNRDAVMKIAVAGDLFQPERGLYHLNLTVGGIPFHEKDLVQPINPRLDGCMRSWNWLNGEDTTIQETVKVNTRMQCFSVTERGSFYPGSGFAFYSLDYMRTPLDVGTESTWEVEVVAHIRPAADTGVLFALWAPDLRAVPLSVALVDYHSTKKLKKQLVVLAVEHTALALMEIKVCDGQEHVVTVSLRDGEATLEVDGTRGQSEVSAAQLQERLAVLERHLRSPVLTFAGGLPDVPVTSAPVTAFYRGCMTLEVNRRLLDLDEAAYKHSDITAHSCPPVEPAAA
UniProt Q969S9: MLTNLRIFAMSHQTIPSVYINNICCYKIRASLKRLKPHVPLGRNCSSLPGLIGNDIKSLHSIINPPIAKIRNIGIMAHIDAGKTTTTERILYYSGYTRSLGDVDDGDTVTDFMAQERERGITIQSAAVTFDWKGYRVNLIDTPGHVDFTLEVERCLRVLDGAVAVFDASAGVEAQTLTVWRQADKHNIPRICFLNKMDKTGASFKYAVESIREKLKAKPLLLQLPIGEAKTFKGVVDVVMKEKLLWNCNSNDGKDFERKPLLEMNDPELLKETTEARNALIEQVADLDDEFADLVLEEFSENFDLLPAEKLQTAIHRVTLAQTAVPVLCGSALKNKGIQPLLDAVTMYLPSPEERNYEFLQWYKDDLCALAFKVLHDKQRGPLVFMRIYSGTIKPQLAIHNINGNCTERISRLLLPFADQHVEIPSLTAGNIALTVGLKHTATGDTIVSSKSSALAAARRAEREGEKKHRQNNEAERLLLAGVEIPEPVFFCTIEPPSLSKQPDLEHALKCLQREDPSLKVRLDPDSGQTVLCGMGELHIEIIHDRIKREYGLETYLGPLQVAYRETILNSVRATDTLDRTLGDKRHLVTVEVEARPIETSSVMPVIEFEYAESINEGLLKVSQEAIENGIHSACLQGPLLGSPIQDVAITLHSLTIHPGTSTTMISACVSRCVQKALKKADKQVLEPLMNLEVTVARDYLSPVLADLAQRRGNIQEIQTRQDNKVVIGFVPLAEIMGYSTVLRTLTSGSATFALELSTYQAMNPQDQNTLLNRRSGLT
UniProt Q6ZNW5: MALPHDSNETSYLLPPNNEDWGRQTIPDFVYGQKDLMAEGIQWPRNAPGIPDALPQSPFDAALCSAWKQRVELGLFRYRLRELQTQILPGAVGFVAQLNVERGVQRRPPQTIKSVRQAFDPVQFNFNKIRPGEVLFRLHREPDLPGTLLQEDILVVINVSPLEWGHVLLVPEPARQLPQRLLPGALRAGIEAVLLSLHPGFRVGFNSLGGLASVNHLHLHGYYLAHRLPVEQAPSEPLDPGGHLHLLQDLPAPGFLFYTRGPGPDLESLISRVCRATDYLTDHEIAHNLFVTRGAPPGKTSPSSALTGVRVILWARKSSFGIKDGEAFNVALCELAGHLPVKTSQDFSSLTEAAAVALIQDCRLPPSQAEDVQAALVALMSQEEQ
UniProt Q9NWZ8: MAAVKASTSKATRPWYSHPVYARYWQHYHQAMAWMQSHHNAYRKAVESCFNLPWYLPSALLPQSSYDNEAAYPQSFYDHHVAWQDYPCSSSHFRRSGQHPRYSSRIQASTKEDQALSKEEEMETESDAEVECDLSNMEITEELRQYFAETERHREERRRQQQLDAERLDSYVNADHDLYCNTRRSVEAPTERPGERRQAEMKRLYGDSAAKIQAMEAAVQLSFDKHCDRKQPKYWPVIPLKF
UniProt Q7L5L3: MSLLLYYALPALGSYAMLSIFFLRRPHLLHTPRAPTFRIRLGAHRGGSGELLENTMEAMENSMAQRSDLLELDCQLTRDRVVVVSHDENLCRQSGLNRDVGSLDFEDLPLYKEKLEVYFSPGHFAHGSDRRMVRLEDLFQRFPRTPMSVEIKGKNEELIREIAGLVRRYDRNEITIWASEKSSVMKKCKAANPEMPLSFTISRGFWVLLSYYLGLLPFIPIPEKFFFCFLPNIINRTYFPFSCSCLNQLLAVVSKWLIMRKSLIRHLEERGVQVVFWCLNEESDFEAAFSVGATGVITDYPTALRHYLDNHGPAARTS
UniProt P22466: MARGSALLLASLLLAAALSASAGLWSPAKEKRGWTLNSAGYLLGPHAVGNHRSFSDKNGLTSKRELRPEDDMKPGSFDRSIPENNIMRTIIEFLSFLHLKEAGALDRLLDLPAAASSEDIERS

Key:
Test in all cases: log2 fold change, soluble protein after heating vs DMSO (PISA); higher = thermal stabilisation; K562 cells, 10 uM, 30 min; active = over 0.2 and 3.5 SD of the protein, either way, in both replicates (recomputed)
crizotinib = compound: C[C@@H](Oc1cc(-c2cnn(C3CCNCC3)c2)cnc1N)c1c(Cl)ccc(F)c1Cl [crizotinib]
In short: (§1)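 For each measurement, 10 μM compound was applied for 30 min to K562 cells at 2×10^6 cells/mL. Aliquots were heated for 3 min across 48°C-58°C, pooled, and extracted in PBS with 0.5% NP-40 at 4°C; the supernatant after 21,000xg for 90 min was soluble protein. This was quantified by TMTpro 16plex LC-MS/MS with channel sums equalised, and thermal stability was reported relative to control samples from duplicates, on a log2 fold-change scale.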

[1] = compound: C[C@@H]1COCCN1C2=NC(=NC(=C2)C3(CC3)S(=O)(=O)C)C4=C5C=CNC5=CC=C4
In short: as §1

[2] = compound: C[C@H](C1=CC=C(C=C1)C(=O)NC2=C3C=CNC3=NC=C2)N
In short: as §1

duvelisib = compound: C[C@H](Nc1ncnc2nc[nH]c12)c1cc2cccc(Cl)c2c(=O)n1-c1ccccc1 [duvelisib]
In short: as §1

gandotinib = compound: Cc1cc(Nc2cc(CN3CCOCC3)c3nc(C)c(Cc4ccc(Cl)cc4F)n3n2)n[nH]1 [gandotinib]
In short: as §1

tozasertib = compound: Cc1cc(Nc2cc(N3CCN(C)CC3)nc(Sc3ccc(NC(=O)C4CC4)cc3)n2)n[nH]1 [tozasertib]
In short: as §1

[3] = compound: Cc1cc(SCc2sc(-c3ccc(C(F)(F)F)cc3)nc2C)ccc1OCC(=O)O
In short: as §1

doramapimod = compound: Cc1ccc(-n2nc(C(C)(C)C)cc2NC(=O)Nc2ccc(OCCN3CCOCC3)c3ccccc23)cc1 [doramapimod]
In short: as §1

ispinesib = compound: Cc1ccc(C(=O)N(CCCN)[C@@H](c2nc3cc(Cl)ccc3c(=O)n2Cc2ccccc2)C(C)C)cc1 [ispinesib]
In short: as §1

bafetinib = compound: Cc1ccc(NC(=O)c2ccc(CN3CC[C@H](N(C)C)C3)c(C(F)(F)F)c2)cc1Nc1nccc(-c2cncnc2)n1 [bafetinib]
In short: as §1

[4] = compound: Cc1cccc(CC(=O)N2CCc3c2ccc(-c2cn(C)c4ncnc(N)c24)c3F)n1
In short: as §1

nilotinib = compound: Cc1cn(-c2cc(NC(=O)c3ccc(C)c(Nc4nccc(-c5cccnc5)n4)c3)cc(C(F)(F)F)c2)cn1 [nilotinib]
In short: as §1

[5] = compound: Cc1nc(Nc2n[nH]c3c2CN(C(=O)N[C@H](CN(C)C)c2ccccc2)C3(C)C)c2sccc2n1
In short: as §1

dasatinib = compound: Cc1nc(Nc2ncc(C(=O)Nc3c(C)cccc3Cl)s2)cc(N2CCN(CCO)CC2)n1 [dasatinib]
In short: as §1

[6] = compound: Cc1ncc(-c2ccnc(Nc3ccc(S(C)(=O)=O)cc3)n2)n1C(C)C
In short: as §1

[7] = compound: Cn1cc(-c2ccc3c(c2)CCN3C(=O)Cc2cccc(C(F)(F)F)c2)c2c(N)ncnc21
In short: as §1

[8] = compound: Cn1cc(-c2ccc3nnc(C(F)(F)c4ccc5ncccc5c4)n3n2)cn1
In short: as §1

tipifarnib = compound: Cn1cncc1[C@@](N)(c1ccc(Cl)cc1)c1ccc2c(c1)c(-c1cccc(Cl)c1)cc(=O)n2C [tipifarnib]
In short: as §1

mubritinib = compound: FC(F)(F)c1ccc(/C=C/c2nc(COc3ccc(CCCCn4ccnn4)cc3)co2)cc1 [mubritinib]
In short: as §1

[9] = compound: CS(=O)(=O)c1ccc(-c2cnc(N)c(C(=O)Nc3ccccc3)n2)cc1
In short: as §1

Measured: log2 fold change

GATC (UniProt O43716)
inactive: crizotinib 0.044 | [1] 0.146 | [2] -0.043 | duvelisib 0.21 | gandotinib 0 | tozasertib 0.034 | [3] -0.139 | doramapimod 0.012 | ispinesib 0.083 | bafetinib -0.146 | [4] -0.057 | nilotinib 0 | [5] 0.023 | dasatinib -0.039 | [6] 0.02 | [7] -0.06 | [8] 0.265 | tipifarnib 0.124 | mubritinib 0.002

FRA10AC1 isoform 3 (UniProt Q70Z53)
inactive: [9] -0.082 | crizotinib 0.201 | [1] 0.059 | [2] 0.029 | gandotinib 0.189 | [3] -0.116 | doramapimod -0.044 | bafetinib -0.087 | [4] 0.018 | nilotinib -0.034 | [5] -0.039 | dasatinib -0.051 | [6] 0.085 | [7] -0.076 | tipifarnib -0.055 | mubritinib 0.011

FZD5 (UniProt Q13467)
inactive: [9] 0.098 | [1] -0.069 | tozasertib -0.205 | bafetinib -0.186 | tipifarnib 0.015 | mubritinib -0.113

FTSJ3 (UniProt Q8IY81)
inactive: [9] -0.008 | [2] 0.389 | duvelisib 0.02 | gandotinib 0.091 | [3] 0.154 | ispinesib -0.184 | [4] 0.073 | dasatinib 0.388 | [7] -0.308 | [8] 0.029 | tipifarnib 0.298

FOXRED2 (UniProt Q8IWF2)
inactive: crizotinib -0.092 | [1] -0.045 | [2] 0.112 | duvelisib -0.013 | tozasertib -0.026 | [3] 0.056 | doramapimod 0.128 | ispinesib 0.066 | dasatinib 0.014 | [7] -0.078 | [8] -0.059 | tipifarnib 0.006 | mubritinib -0.249

GABARAPL2 (UniProt P60520)
inactive: [9] 0.081 | crizotinib -0.178 | [1] 0.036 | [2] 0.006 | gandotinib 0.039 | [3] 0.005 | doramapimod -0.073 | ispinesib -0.151 | bafetinib -0.168 | [4] 0.096 | nilotinib -0.015 | [5] -0.028 | dasatinib -0.014 | [6] -0.004 | [7] 0.046 | [8] 0.279 | tipifarnib -0.003 | mubritinib 0.03

GBE1 (UniProt Q04446)
inactive: [1] -0.054 | [2] 0.193 | [3] 0.094 | doramapimod -0.02 | ispinesib -0.286 | bafetinib 0.067 | dasatinib -0.275 | [7] -0.004 | [8] 0.059 | tipifarnib -0.608 | mubritinib 0.181
active: crizotinib -0.565

GBA2 (UniProt Q9HCG7)
inactive: [9] 0.091 | crizotinib 0.094 | [1] 0.051 | [2] 0.004 | [3] 0.067 | doramapimod 0.056 | bafetinib 0.045 | nilotinib -0.057 | [5] -0.061 | dasatinib -0.144 | [6] 0.007 | [7] 0.138 | tipifarnib 0.091 | mubritinib 0.234

FUOM (UniProt A2VDF0)
inactive: [9] 0.053 | crizotinib 0.023 | [2] 0.146 | tozasertib -0.033 | doramapimod 0.027 | bafetinib -0.058 | nilotinib 0.064 | [5] 0.004 | [6] -0.203 | [7] 0.29 | mubritinib 0.201

GATAD2B (UniProt Q8WXI9)
inactive: [9] -0.102 | crizotinib -0.161 | [1] -0.021 | tozasertib 0.125 | doramapimod 0.152 | ispinesib -0.122 | [8] 0.088 | tipifarnib 0.023 | mubritinib 0.047

GDAP2 (UniProt Q9NXN4)
inactive: [9] 0.374 | crizotinib -0.103 | [1] -0.029 | duvelisib 0.216 | [3] 0.065 | doramapimod 0.119 | nilotinib 0.094 | [5] -0.168 | dasatinib 0.12 | [6] 0.536 | mubritinib -0.25

FOXO3 (UniProt O43524)
active: crizotinib -0.423
inactive: [9] -0.028 | [1] -0.444 | [2] 0.013 | gandotinib -0.061 | [3] 0.16 | doramapimod 0.005 | ispinesib -0.095 | [4] 0.002 | dasatinib -0.14 | [7] 0 | [8] -0.013 | tipifarnib -0.139 | mubritinib -0.057

Six neighbouring entries from above, quoted:
FOXRED2 (UniProt Q8IWF2)
inactive: crizotinib -0.092 | [1] -0.045 | [2] 0.112 | duvelisib -0.013 | tozasertib -0.026 | [3] 0.056 | doramapimod 0.128 | ispinesib 0.066 | dasatinib 0.014 | [7] -0.078 | [8] -0.059 | tipifarnib 0.006 | mubritinib -0.249

GABARAPL2 (UniProt P60520)
inactive: [9] 0.081 | crizotinib -0.178 | [1] 0.036 | [2] 0.006 | gandotinib 0.039 | [3] 0.005 | doramapimod -0.073 | ispinesib -0.151 | bafetinib -0.168 | [4] 0.096 | nilotinib -0.015 | [5] -0.028 | dasatinib -0.014 | [6] -0.004 | [7] 0.046 | [8] 0.279 | tipifarnib -0.003 | mubritinib 0.03

GBE1 (UniProt Q04446)
inactive: [1] -0.054 | [2] 0.193 | [3] 0.094 | doramapimod -0.02 | ispinesib -0.286 | bafetinib 0.067 | dasatinib -0.275 | [7] -0.004 | [8] 0.059 | tipifarnib -0.608 | mubritinib 0.181
active: crizotinib -0.565

GBA2 (UniProt Q9HCG7)
inactive: [9] 0.091 | crizotinib 0.094 | [1] 0.051 | [2] 0.004 | [3] 0.067 | doramapimod 0.056 | bafetinib 0.045 | nilotinib -0.057 | [5] -0.061 | dasatinib -0.144 | [6] 0.007 | [7] 0.138 | tipifarnib 0.091 | mubritinib 0.234

FUOM (UniProt A2VDF0)
inactive: [9] 0.053 | crizotinib 0.023 | [2] 0.146 | tozasertib -0.033 | doramapimod 0.027 | bafetinib -0.058 | nilotinib 0.064 | [5] 0.004 | [6] -0.203 | [7] 0.29 | mubritinib 0.201

GATAD2B (UniProt Q8WXI9)
inactive: [9] -0.102 | crizotinib -0.161 | [1] -0.021 | tozasertib 0.125 | doramapimod 0.152 | ispinesib -0.122 | [8] 0.088 | tipifarnib 0.023 | mubritinib 0.047

(listing goes on)

FUNDC1 (UniProt Q8IVP5)
inactive: [9] 0.046 | bafetinib -0.169 | tipifarnib 0 | mubritinib 0.066

GAS6 isoform 1 (UniProt Q14393)
inactive: [9] -0.032 | [1] 0.01 | gandotinib -0.095 | [4] -0.154

GCFC2 (UniProt P16383)
inactive: [9] 0.012 | [1] 0.179 | [2] 0.043 | duvelisib -0.022 | gandotinib 0.006 | tozasertib 0.017 | [3] 0.037 | ispinesib -0.014 | bafetinib 0 | [4] -0.004 | nilotinib 0.107 | [5] 0.005 | dasatinib -0.035 | [6] -0.082 | [7] -0.042 | [8] -0.006 | tipifarnib 0.058 | mubritinib -0.041

FUBP3 (UniProt Q96I24)
inactive: [9] -0.076 | crizotinib -0.046 | [1] -0.083 | [2] 0.065 | gandotinib -0.106 | [3] 0.013 | doramapimod -0.025 | ispinesib -0.049 | bafetinib -0.035 | [4] 0.009 | nilotinib -0.051 | [5] 0.035 | dasatinib -0.024 | [6] 0.167 | [7] -0.059 | [8] -0.045 | tipifarnib 0.014 | mubritinib -0.052

G6PC3 (UniProt Q9BUM1)
inactive: nilotinib 0 | [5] 0.027 | [6] 0.092 | tipifarnib 0.251 | mubritinib 0.029

GFM2 (UniProt Q969S9)
inactive: bafetinib -0.009 | mubritinib -0.059

GFOD1 (UniProt Q9NXC2)
inactive: crizotinib -0.012 | [1] 0.03 | gandotinib 0.008 | doramapimod 0.232 | [4] -0.059 | tipifarnib 0.282

FUT10 isoform 2 (UniProt Q6P4F1)
inactive: [1] 0.24 | gandotinib 0.175 | [4] 0.022

GDPD5 (UniProt Q8WTR4)
inactive: crizotinib 0.277 | [1] 0.02 | doramapimod 0.016 | bafetinib -0.09

GAGE1 (UniProt Q13065)
inactive: nilotinib 0.076 | [5] 0.017 | [6] -0.195 | mubritinib 0.079

GCFC2 isoform 3 (UniProt P16383)
inactive: duvelisib -0.078 | tozasertib 0.216 | [3] -0.107 | dasatinib -0.068 | tipifarnib 0.026

FOXJ2 (UniProt Q9P0K8)
inactive: [2] -0.072 | [7] 0.098

FYTTD1 (UniProt Q96QD9)
inactive: [1] 0.046 | [2] 0.355 | gandotinib 0.128 | tozasertib -0.269 | [4] 0.056 | [7] -0.156

GDPGP1 (UniProt Q6ZNW5)
inactive: [2] 0.191 | duvelisib 0.047 | tozasertib 0.101 | [3] 0.111 | nilotinib 0.097 | [5] -0.042 | dasatinib 0.009 | [6] -0.081 | [7] -0.253 | tipifarnib -0.158 | mubritinib 0.335

GEMIN8 (UniProt Q9NWZ8)
inactive: [1] -0.029 | [2] 0.262 | tozasertib 0.124 | nilotinib -0.088 | [5] -0.105 | [6] -0.186 | [7] -0.202 | tipifarnib -0.257

GDPD3 (UniProt Q7L5L3)
inactive: [1] 0.12 | gandotinib 0.055 | [4] 0.063 | tipifarnib 0.015

GAL (UniProt P22466)
inactive: crizotinib -0.012 | doramapimod 0.009 | ispinesib 0.008 | bafetinib 0.194 | [8] -0.084

FRAT1 (UniProt Q92837)
inactive: ispinesib 0.068 | [8] -0.161

FRMD8 (UniProt Q9BZ67)
inactive: [1] -0.11 | [2] -0.14 | tozasertib -0.197 | nilotinib -0.058 | [5] -0.195 | [6] -0.14 | [7] -0.33

GFAP isoform 2 (UniProt P14136)
inactive: gandotinib -0.205 | [4] -0.289 | mubritinib -0.218

GDF15 (UniProt Q99988)
inactive: crizotinib 0.04 | [2] 0.103 | duvelisib -0.076 | tozasertib 0.131 | [3] 0.108 | doramapimod -0.008 | ispinesib 0.206 | bafetinib 0.098 | nilotinib 0.16 | [5] -0.02 | dasatinib 0.289 | [6] -0.163 | [7] -0.149 | [8] -0.188 | tipifarnib 0.102 | mubritinib -0.025
